# Measured values taken from PubChem BioAssay AID2100 (National Center for Advancing Translational Sciences (NCATS), 2009).
# The campaign covered roughly 300,000 compounds. About 1,200 (0.4%) were called active. These results got no clear call from the source, so the numbers are uncertain. Calls follow the shape of the dose curve; as a rule, active = well fitted inhibition curve with a large enough effect; inconclusive = small, poorly fitted or top-dose-only effect, or another doubt; inactive = no such curve, though single readings can be large or run the other way.
# Biological target: Lysosomal alpha-glucosidase (Homo sapiens) (UniProt P10253)
# Assay: qHTS Assay for Inhibitors and Activators of Human alpha-Glucosidase Cleavage of Glycogen;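 also: the screen sought inhibitors and activators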
# Conditions: recombinant GAA, glycogen substrate, Amplex Red glucose oxidase fluorescence
# Source text: NIH Chemical Genomics Center [NCGC] NIH Molecular Libraries Probe Production Centers Network [MLPCN] MLPCN Grant: R03 MH084841-01 Assay Submitter (PI): Wei Zheng NCGC Assay Overview: Alpha-glucosidase is responsible for the hydrolysis of terminal, non-reducing 1,4-linked alpha-D-glucose residues, which releases alpha-D-glucose. It is a lysosomal hydrolase that is required for the degradation of a small percentage (1-3%) of cellular glycogen in humans. Deficiency of this enzyme results in glycogen-storage disease type II (GSDII), also referred to as Pompe disease, an autosomal recessive disorder. Structurally normal glycogen is accumulated in the lysosomes and cytoplasm in affected patients, primarily in muscle tissues. […]
# NCGC Assay Protocol Summary: This is an enzyme assay using glycogen from bovine liver (Sigma catalog #: G0885) as the substrate and recombinant human alpha-glucosidase as the enzyme preparation. Upon hydrolysis of the substrate, the glucose product can be detected using the Amplex Red Glucose Oxidase Assay Kit (Invitrogen catalog #: A22189). The product of this reaction can be read with a fluorescence plate reader with an excitation at 573 nm and an emission at 610 nm. […] The AC50 values were determined from concentration-response data modeled with the standard Hill equation. […] (7) Detect the assay plate in a ViewLux plate reader (PerkinElmer) with Ex=573 nm and Em=610nm. […]
# Potency is read from the fitted curve at half-maximal effect.
row,Compound,Potency
1,CCCCCOc1ccc(NP(C)(=O)Oc2ccc(Cl)cc2Cl)cc1 (configuration not stated),inconclusive: 44.7 µM
2,COc1ccccc1OP(C)(=O)Nc1c(C)n(C)n(-c2ccccc2)c1=O (configuration not stated),inconclusive: 35.5 µM
